Among the data in paper PMC10517005, “A conserved membrane protein negatively regulates Mce1 complexes in mycobacteria” (Nature Communications, 2023) are binding values, retold here.

The experiment deals with T1, His6-YrbE1B (M. smegmatis).
T1 sequence: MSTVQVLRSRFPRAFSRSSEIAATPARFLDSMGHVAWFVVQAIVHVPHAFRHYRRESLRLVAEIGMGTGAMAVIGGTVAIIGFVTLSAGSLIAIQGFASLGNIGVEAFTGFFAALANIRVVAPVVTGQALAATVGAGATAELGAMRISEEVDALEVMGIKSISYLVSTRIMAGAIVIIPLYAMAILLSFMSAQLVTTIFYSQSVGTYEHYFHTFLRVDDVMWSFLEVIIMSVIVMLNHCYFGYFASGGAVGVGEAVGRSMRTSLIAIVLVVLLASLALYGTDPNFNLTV
The experiment can be described thus: pull-down; His-tag affinity purification (TALON resin) from DDM-extracted membranes of E. coli co-expressing the His-tagged bait and MSMEG_0959-FLAG; SDS-PAGE, α-His and α-FLAG immunoblots; TBS pH 8.0, wash with 300 mM NaCl, 0.05% DDM.

No constants are given. Whether binding was seen depends on the method and setting. In cells and extracts the contact can be indirect. Some binding calls cover weakened binding; strength is not graded here. Where a sequence is shown, tags or fusion partners need not be part of it.

B1: MSMEG_0959-FLAG (protein)
chain: MTEPAGHEPPEAAGMSGVPDASGAAPAGEVLFYEQGASWAWLLSGPIAGVGMAILQRTGGYGYDLWIPLIFLVLVSGFIAIQIKAARIHTSVELTRETLRQGTEIISIDEIVDIYPEASGSEVPKWQSARALGELTGVPRGRTGIGLKLTGKRVAQAWARRHRTLRAALQQLVEERTP
With B1, the binding result is listed as “binds”.
